According to paper PMC7974539:
No constants are given. Whether binding was seen depends on the method and setting. Binding seen in cells or lysates may run through a third protein. Some entries that bind do so weakly or less than the wild type.

Amino acid sequences for entries named in this document (tags omitted).
UniProt Q93009: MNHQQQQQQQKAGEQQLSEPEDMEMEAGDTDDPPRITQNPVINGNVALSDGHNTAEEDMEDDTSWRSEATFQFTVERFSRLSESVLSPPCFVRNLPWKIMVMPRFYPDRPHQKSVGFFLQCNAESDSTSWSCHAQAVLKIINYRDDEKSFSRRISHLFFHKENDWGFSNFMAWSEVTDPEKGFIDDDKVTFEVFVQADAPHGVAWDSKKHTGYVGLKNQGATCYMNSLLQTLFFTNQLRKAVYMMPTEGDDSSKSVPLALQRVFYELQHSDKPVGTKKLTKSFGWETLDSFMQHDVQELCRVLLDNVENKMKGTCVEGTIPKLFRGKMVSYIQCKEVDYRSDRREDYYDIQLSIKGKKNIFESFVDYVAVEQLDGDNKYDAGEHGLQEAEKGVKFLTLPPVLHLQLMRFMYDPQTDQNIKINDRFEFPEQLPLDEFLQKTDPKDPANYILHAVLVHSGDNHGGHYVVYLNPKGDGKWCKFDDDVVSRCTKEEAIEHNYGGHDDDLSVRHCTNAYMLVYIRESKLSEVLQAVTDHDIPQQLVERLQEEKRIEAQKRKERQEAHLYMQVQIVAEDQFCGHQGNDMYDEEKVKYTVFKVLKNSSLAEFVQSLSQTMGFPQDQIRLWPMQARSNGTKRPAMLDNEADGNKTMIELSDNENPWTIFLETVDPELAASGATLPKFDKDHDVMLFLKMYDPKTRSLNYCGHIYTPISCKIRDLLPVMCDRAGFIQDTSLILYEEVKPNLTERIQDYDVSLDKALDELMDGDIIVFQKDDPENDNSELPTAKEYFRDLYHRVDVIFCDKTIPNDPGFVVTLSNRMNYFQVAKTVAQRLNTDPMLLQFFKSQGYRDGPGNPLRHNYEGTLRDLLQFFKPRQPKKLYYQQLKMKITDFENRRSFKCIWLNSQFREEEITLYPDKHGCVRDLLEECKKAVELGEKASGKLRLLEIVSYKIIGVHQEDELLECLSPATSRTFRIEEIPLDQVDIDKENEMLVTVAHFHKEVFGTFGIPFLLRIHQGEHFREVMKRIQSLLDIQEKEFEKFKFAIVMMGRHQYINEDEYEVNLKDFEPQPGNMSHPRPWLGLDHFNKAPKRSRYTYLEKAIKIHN
UniProt Q4VSI4: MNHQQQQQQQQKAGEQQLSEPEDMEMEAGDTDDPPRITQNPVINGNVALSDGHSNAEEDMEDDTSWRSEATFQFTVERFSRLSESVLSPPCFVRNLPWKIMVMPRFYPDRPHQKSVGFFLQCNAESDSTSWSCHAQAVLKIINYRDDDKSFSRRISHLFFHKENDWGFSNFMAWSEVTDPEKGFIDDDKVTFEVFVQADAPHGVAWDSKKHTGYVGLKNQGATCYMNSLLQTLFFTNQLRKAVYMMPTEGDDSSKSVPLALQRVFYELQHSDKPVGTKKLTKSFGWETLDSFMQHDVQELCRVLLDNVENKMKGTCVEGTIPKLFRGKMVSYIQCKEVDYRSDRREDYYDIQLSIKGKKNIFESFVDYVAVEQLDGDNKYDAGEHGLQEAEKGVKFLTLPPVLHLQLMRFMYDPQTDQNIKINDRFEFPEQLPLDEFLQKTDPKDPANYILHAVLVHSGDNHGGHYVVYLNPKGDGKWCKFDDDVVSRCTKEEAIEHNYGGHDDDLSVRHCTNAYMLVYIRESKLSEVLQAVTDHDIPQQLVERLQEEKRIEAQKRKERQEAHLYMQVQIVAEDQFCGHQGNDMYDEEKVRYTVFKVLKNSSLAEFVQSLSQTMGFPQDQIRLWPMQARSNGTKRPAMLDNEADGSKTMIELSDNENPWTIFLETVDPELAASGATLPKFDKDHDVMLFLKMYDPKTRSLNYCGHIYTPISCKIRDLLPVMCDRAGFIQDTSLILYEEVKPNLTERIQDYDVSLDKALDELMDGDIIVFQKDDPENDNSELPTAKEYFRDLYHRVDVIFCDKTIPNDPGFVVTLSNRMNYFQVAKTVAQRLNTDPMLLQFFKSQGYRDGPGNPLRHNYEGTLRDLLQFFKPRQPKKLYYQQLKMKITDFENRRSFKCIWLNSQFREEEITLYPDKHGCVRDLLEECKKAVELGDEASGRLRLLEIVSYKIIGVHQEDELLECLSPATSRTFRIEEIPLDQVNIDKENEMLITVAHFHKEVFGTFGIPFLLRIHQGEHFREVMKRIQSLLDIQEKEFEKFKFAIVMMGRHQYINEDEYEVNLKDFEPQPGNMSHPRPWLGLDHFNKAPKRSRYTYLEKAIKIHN

T1: NEK2, endogenous in GH3 and MMQ cells (rat (endogenous in GH3 and MMQ)) (UniProt G3V6L2)
T1 sequence: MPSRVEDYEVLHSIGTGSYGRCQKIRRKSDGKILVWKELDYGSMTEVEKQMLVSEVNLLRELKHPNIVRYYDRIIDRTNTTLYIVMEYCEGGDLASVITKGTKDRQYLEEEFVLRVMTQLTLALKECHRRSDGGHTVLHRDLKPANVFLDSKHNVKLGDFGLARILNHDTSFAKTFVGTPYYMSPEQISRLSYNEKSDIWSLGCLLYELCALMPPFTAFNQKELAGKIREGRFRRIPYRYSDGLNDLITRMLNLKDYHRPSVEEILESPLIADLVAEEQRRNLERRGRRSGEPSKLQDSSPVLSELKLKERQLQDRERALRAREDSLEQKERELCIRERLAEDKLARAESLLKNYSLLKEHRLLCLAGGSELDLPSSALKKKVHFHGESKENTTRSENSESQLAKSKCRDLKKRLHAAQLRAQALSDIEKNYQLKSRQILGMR

B1: NEK2 (never in mitosis-related kinase 2) in transiently transfected HEK293T cells (enzyme, UniProt P51955 1-445)
chain: MPSRAEDYEVLYTIGTGSYGRCQKIRRKSDGKILVWKELDYGSMTEAEKQMLVSEVNLLRELKHPNIVRYYDRIIDRTNTTLYIVMEYCEGGDLASVITKGTKERQYLDEEFVLRVMTQLTLALKECHRRSDGGHTVLHRDLKPANVFLDGKQNVKLGDFGLARILNHDTSFAKTFVGTPYYMSPEQMNRMSYNEKSDIWSLGCLLYELCALMPPFTAFSQKELAGKIREGKFRRIPYRYSDELNEIITRMLNLKDYHRPSVEEILENPLIADLVADEQRRNLERRGRQLGEPEKSQDSSPVLSELKLKEIQLQERERALKAREERLEQKEQELCVRERLAEDKLARAENLLKNYSLLKERKFLSLASNPELLNLPSSVIKKKVHFSGESKENIMRSENSESQLTSKSKCKDLKKRLHAAQLRAQALSDIEKNYQLKSRQILGMR

Tests used:
[1] = target: T1, NEK2, endogenous in GH3 and MMQ cells (rat (endogenous in GH3 and MMQ)); assay: co-IP; endogenous proteins; NEK2 immunoprecipitated from GH3 and MMQ cells with anti-NEK2 or IgG antibody
[2] = target: USP7 (ubiquitin-specific peptidase 7), transfected in HEK293T cells (UniProt Q93009); assay: co-IP; transiently transfected HEK293T cells; lysate subjected to IP with anti-FLAG M2 affinity resin overnight at 4 °C, eluted with 3x Flag-peptide; immunoblotting

Row | Molecule | binding [1] | binding [2]
1 | USP7, endogenous in GH3 and MMQ cells (from UniProt Q4VSI4 1-1103) (enzyme) | binds | 
2 | B1 |  | binds
